Values of other authors, collected in US11357779B2 (G1 Therapeutics, Inc., priority 2018, dated 2022).
Some of these results come from one statement about several compounds together.

Conditions: reported for comparator drugs, published steady state AUC data; cited from earlier work

**Q.** Which “(AUC0-24,ss)/Dose” value does the source give for CCN1CCN(Cc2ccc(Nc3ncc(F)c(-c4cc(F)c5nc(C)n(C(C)C)c5c4)n3)nc2)CC1 [abemaciclib, 2-pyrimidinamine, N-[5-[(4-ethyl-1-piperazinyl)methyl]-2-pyridinyl]-5-fluoro-4-[4-fluoro-2-methyl-1-(1-methylethyl)-1H-benzimidazol-6-yl]-] here?
**A.** greater than 5
